Laboratory results reported in paper PMC4466651.
Results are given in words; binding and its absence hold for the method and conditions named. In cells and extracts the contact can be indirect. Some binding calls cover weakened binding; strength is not graded here. Sequences can lack the tags named with a protein.

Chains of the proteins cited; added tags and fusions are not shown.
UniProt P16615: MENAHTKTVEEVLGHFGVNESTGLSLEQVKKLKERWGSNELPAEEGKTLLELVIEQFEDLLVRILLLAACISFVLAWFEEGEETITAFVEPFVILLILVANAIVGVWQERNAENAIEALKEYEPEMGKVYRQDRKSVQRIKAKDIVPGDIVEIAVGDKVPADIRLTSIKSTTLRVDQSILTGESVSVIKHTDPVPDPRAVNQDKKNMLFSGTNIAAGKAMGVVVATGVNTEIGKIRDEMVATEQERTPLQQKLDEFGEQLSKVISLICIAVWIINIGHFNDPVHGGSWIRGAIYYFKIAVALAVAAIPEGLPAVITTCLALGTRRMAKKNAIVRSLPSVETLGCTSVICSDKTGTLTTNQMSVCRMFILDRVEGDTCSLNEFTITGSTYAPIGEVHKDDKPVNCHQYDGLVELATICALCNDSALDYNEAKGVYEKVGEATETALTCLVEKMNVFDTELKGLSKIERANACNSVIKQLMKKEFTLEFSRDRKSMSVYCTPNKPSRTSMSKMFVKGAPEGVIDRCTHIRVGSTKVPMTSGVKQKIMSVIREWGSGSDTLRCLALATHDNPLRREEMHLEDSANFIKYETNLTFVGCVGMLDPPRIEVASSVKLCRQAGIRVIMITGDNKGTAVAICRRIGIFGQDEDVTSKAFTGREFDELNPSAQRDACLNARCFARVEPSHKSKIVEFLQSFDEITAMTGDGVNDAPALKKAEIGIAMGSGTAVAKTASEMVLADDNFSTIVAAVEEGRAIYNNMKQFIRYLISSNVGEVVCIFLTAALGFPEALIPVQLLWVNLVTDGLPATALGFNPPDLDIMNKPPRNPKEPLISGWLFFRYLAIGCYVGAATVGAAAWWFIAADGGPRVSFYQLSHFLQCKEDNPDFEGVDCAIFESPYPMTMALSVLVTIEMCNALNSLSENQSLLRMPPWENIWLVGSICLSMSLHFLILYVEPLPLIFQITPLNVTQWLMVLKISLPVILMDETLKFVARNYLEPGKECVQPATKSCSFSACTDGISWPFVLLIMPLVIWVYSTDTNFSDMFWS

What was measured:
SERCA2, HA-tagged [1] = biological target: SERCA2, HA-tagged (UniProt P16615); test: co-IP; HEK 293T cells co-transfected with Flag-HRC and HA-SERCA2, lysed after 48 h in 1% NP40 NET buffer; supernatants incubated overnight at 4°C with protein G-Sepharose beads conjugated with rabbit anti-Flag or anti-HA antibody; western blot; done in both directions
SERCA2, HA-tagged [2] = biological target: SERCA2, HA-tagged (UniProt P16615); test: co-IP; SMMC-7721 cells co-transfected with Flag-HRC and HA-SERCA2, lysed after 48 h in 1% NP40 NET buffer; supernatants incubated overnight at 4°C with protein G-Sepharose beads conjugated with rabbit anti-Flag or anti-HA antibody; western blot

binding (SERCA2, HA-tagged [1]): binds
binding (SERCA2, HA-tagged [2]): binds
B1: histidine-rich calcium binding protein (HRC), FLAG-tagged (protein, UniProt P23327 29-699)
chain: QLRGDGLGFRNRNNSTGVAGLSEEASAELRHHLHSPRDHPDENKDVSTENGHHFWSHPDREKEDEDVSKEYGHLLPGHRSQDHKVGDEGVSGEEVFAEHGGQARGHRGHGSEDTEDSAEHRHHLPSHRSHSHQDEDEDEVVSSEHHHHILRHGHRGHDGEDDEGEEEEEEEEEEEEASTEYGHQAHRHRGHGSEEDEDVSDGHHHHGPSHRHQGHEEDDDDDDDDDDDDDDDDVSIEYRHQAHRHQGHGIEEDEDVSDGHHHRDPSHRHRSHEEDDNDDDDVSTEYGHQAHRHQDHRKEEVEAVSGEHHHHVPDHRHQGHRDEEEDEDVSTERWHQGPQHVHHGLVDEEEEEEEITVQFGHYVASHQPRGHKSDEEDFQDEYKTEVPHHHHHRVPREEDEEVSAELGHQAPSHRQSHQDEETGHGQRGSIKEMSHHPPGHTVVKDRSHLRKDDSEEEKEKEEDPGSHEEDDESSEQGEKGTHHGSRDQEDEEDEEEGHGLSLNQEEEEEEDKEEEEEEEDEERREERAEVGAPLSPDHSEEEEEEEEGLEEDEPRFTIIPNPLDRREEAGGASSEEESGEDTGPQDAQEYGNYQPGSLCGYCSFCNRCTECESCHCDEENMGEHCDQCQHCQFCYLCPLVCETVCAPGSYVDYFSSSLYQALADMLETPEP
